The values that follow come from paper PMC10237651, “Arabidopsis FIN219/JAR1 interacts with phytochrome A under far-red light and jasmonates in regulating hypocotyl elongation via a functional demand manner” (PLOS Genetics, 2023).

Test [1] deals with T1, full-length FIN219/JAR1, yeast two-hybrid fusion (Arabidopsis) (UniProt Q9SKE2).
T1 sequence: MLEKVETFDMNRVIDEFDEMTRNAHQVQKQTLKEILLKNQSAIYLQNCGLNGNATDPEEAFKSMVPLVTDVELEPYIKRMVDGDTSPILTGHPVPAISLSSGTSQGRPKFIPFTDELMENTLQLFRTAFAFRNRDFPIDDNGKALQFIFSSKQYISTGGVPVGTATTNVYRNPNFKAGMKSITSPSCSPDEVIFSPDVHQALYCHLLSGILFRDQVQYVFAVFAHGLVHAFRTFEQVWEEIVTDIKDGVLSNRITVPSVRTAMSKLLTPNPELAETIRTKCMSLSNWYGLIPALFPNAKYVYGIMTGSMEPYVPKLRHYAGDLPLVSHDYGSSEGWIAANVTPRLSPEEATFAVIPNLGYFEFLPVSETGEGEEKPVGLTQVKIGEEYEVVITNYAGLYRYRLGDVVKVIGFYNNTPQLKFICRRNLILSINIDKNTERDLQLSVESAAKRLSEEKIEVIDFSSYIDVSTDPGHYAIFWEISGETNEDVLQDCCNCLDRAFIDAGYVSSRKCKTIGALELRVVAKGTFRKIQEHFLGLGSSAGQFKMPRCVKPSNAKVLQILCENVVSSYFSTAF
Briefly: two-hybrid; yeast strain AH109; SD agar without His, Leu, Trp and adenine, X-α-gal, 30°C; PHYA deletions as prey with FIN219 as bait (S4A Fig), FIN219 deletions as prey with PHYA as bait (S4B Fig).

Test [2] has as its target T2, phytochrome A (phyA), endogenous in Arabidopsis seedlings (Arabidopsis (endogenous in Col-0 seedlings)), P14712.
T2 chain: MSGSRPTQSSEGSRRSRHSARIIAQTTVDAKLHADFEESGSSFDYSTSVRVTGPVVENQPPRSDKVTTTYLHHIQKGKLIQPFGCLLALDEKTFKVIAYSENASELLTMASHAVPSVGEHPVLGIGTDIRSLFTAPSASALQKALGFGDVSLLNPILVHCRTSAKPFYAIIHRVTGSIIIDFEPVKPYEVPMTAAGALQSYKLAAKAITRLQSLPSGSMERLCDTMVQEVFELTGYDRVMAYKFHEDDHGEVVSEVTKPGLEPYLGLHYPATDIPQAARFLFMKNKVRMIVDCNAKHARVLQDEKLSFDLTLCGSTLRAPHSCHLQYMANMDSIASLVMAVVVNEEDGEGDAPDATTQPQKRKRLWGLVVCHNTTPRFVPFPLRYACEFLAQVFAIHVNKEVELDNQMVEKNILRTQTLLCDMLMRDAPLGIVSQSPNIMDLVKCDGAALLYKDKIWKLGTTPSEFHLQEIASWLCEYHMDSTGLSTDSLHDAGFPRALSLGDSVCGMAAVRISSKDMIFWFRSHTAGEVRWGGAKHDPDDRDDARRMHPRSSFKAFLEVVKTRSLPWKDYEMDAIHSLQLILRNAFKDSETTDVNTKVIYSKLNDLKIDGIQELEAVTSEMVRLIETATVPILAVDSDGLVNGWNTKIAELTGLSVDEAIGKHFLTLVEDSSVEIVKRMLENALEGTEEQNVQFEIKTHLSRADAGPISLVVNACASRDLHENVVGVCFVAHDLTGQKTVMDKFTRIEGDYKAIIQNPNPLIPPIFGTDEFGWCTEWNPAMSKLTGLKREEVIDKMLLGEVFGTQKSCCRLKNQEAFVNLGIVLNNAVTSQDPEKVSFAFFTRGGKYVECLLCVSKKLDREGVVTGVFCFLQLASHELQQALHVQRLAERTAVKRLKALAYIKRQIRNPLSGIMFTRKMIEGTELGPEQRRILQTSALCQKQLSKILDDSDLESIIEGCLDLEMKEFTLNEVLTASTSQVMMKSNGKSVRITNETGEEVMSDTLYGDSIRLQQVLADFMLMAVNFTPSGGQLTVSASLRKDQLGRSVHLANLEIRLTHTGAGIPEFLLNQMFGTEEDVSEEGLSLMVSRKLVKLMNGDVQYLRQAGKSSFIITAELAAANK
Briefly: co-IP; protein extracts (2 mg) of Arabidopsis seedlings (Col-0, NTOX, CTOX) precipitated with PHYA monoclonal antibody beads, 4 h at 4°C; blots for PHYA, FIN219, COP1, GUS; seedlings dark-grown then 3 h FR, or 3 d dark or cFR with 50 μM MeJA, or 3 d FR light. The following applies: remark: other sources report otherwise.

Results are given in words; binding and its absence hold for the method and conditions named. For some assays here: Binding seen in cells or lysates may run through a third protein. Some results given as binding are weak or reduced against the parent protein; the word gives no strength. For some assays here: Tags and fused reporters may be left off the sequences shown.

B1: full-length PHYA (phytochrome A apoprotein), yeast two-hybrid fusion (protein, UniProt P14712 1-1122)
chain: MSGSRPTQSSEGSRRSRHSARIIAQTTVDAKLHADFEESGSSFDYSTSVRVTGPVVENQPPRSDKVTTTYLHHIQKGKLIQPFGCLLALDEKTFKVIAYSENASELLTMASHAVPSVGEHPVLGIGTDIRSLFTAPSASALQKALGFGDVSLLNPILVHCRTSAKPFYAIIHRVTGSIIIDFEPVKPYEVPMTAAGALQSYKLAAKAITRLQSLPSGSMERLCDTMVQEVFELTGYDRVMAYKFHEDDHGEVVSEVTKPGLEPYLGLHYPATDIPQAARFLFMKNKVRMIVDCNAKHARVLQDEKLSFDLTLCGSTLRAPHSCHLQYMANMDSIASLVMAVVVNEEDGEGDAPDATTQPQKRKRLWGLVVCHNTTPRFVPFPLRYACEFLAQVFAIHVNKEVELDNQMVEKNILRTQTLLCDMLMRDAPLGIVSQSPNIMDLVKCDGAALLYKDKIWKLGTTPSEFHLQEIASWLCEYHMDSTGLSTDSLHDAGFPRALSLGDSVCGMAAVRISSKDMIFWFRSHTAGEVRWGGAKHDPDDRDDARRMHPRSSFKAFLEVVKTRSLPWKDYEMDAIHSLQLILRNAFKDSETTDVNTKVIYSKLNDLKIDGIQELEAVTSEMVRLIETATVPILAVDSDGLVNGWNTKIAELTGLSVDEAIGKHFLTLVEDSSVEIVKRMLENALEGTEEQNVQFEIKTHLSRADAGPISLVVNACASRDLHENVVGVCFVAHDLTGQKTVMDKFTRIEGDYKAIIQNPNPLIPPIFGTDEFGWCTEWNPAMSKLTGLKREEVIDKMLLGEVFGTQKSCCRLKNQEAFVNLGIVLNNAVTSQDPEKVSFAFFTRGGKYVECLLCVSKKLDREGVVTGVFCFLQLASHELQQALHVQRLAERTAVKRLKALAYIKRQIRNPLSGIMFTRKMIEGTELGPEQRRILQTSALCQKQLSKILDDSDLESIIEGCLDLEMKEFTLNEVLTASTSQVMMKSNGKSVRITNETGEEVMSDTLYGDSIRLQQVLADFMLMAVNFTPSGGQLTVSASLRKDQLGRSVHLANLEIRLTHTGAGIPEFLLNQMFGTEEDVSEEGLSLMVSRKLVKLMNGDVQYLRQAGKSSFIITAELAAANK
Regarding B1, in test [1], the binding entry is recorded as “binds”.

B2: CONSTITUTIVE PHOTOMORPHOGENIC 1 (COP1), endogenous in Arabidopsis seedlings, P43254 1-675 (protein)
chain: MEEISTDPVVPAVKPDPRTSSVGEGANRHENDDGGSGGSEIGAPDLDKDLLCPICMQIIKDAFLTACGHSFCYMCIITHLRNKSDCPCCSQHLTNNQLYPNFLLDKLLKKTSARHVSKTASPLDQFREALQRGCDVSIKEVDNLLTLLAERKRKMEQEEAERNMQILLDFLHCLRKQKVDELNEVQTDLQYIKEDINAVERHRIDLYRARDRYSVKLRMLGDDPSTRNAWPHEKNQIGFNSNSLSIRGGNFVGNYQNKKVEGKAQGSSHGLPKKDALSGSDSQSLNQSTVSMARKKRIHAQFNDLQECYLQKRRQLADQPNSKQENDKSVVRREGYSNGLADFQSVLTTFTRYSRLRVIAEIRHGDIFHSANIVSSIEFDRDDELFATAGVSRCIKVFDFSSVVNEPADMQCPIVEMSTRSKLSCLSWNKHEKNHIASSDYEGIVTVWDVTTRQSLMEYEEHEKRAWSVDFSRTEPSMLVSGSDDCKVKVWCTRQEASVINIDMKANICCVKYNPGSSNYIAVGSADHHIHYYDLRNISQPLHVFSGHKKAVSYVKFLSNNELASASTDSTLRLWDVKDNLPVRTFRGHTNEKNFVGLTVNSEYLACGSETNEVYVYHKEITRPVTSHRFGSPDMDDAEEEAGSYFISAVCWKSDSPTMLTANSQGTIKVLVLAA
For the molecule B2, the binding result in test [2] is given as “binds”.
